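Viability assay of Plasmodium falciparum sporozoites; the read-out is not stated. The concentration is filed as 10 mM, unlikely as a test dose, so the dose is not known. Higher reads as lower viability (inferred: compounds with an IC50 in retests scored well above the rest). Strong results were mostly tested again. Of about 34,000 compounds tested this way, about 280 (0.84%) reached 50% or more in at least one test.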

The filed quantity is “Percent Effect” (%). The controls that fix the scale are not given in the record; negative values are as filed. The compounds are a random part of those screened. Two or more numbers in one place are separate tests of the same structure; such repeats can differ widely.

| compound | effect |
|---|---|
| `COc1ccccc1CCNC(=O)N1CCCC(c2nncn2C)C1` (stereo not shown) | -1.384 |
| `COc1nc2cc(C)ccc2cc1CN(C)Cc1n[nH]c2c1CCCC2` | -7.524 |
| `Cn1cnc2c1C(COCC1CCOCC1)CN(C(=O)C1CC=CC1)C2.O=C(O)C(F)(F)F` (stereo not shown) | -4.882 |
| `O=C(O)COCC(=O)NC1CC2(CCCCC2)Oc2ccccc21` (stereo not shown) | 2.403 |
| `O=C(C1CC(c2ccccc2)=NO1)N1CCCCc2ccccc21` (stereo not shown) | -0.6055 |
| `CCn1cc2c(n1)CN(Cc1ccncc1)CC2COCC1CC1.O=C(O)C(F)(F)F.O=C(O)C(F)(F)F` (stereo not shown) | -15.57 |
| `Cc1cnn(Cc2cc(F)ccc2F)c1NC(=O)C1COCCO1` (stereo not shown) | -2.575 |
| `COc1ccc(S(=O)(=O)NCCC(=O)NCc2ccoc2)cc1OC` | -13.97 |
| `CC(C)C(=O)NCc1cccc(N2CCCCC2=O)c1` | -2.543 |
| `Cn1cnc2c1C(COCC1CCOCC1)CN(c1ncccn1)C2.O=C(O)C(F)(F)F.O=C(O)C(F)(F)F` (stereo not shown) | -4.209 |
| `CCc1cc(CN2CCCCC2c2ccc(F)cc2)on1` (stereo not shown) | -4.066 |
| `COc1ncc(CN2CCCC2c2[nH]ncc2C(=O)N(C)C)cn1` (stereo not shown) | 6.01 |
| `Cc1cc(-c2cnc(NCc3ccccn3)nc2C(C)C)on1` | 5.888 |
| `Cc1cnn(CCNCC(O)COc2ccc3ccccc3c2)c1` (stereo not shown) | -10.42 |
| `CCc1ncc2c(n1)CN(CC(=O)Nc1nncs1)CC2` | 3.221 |
| `CN(C)c1cc(CNC(=O)Nc2nncs2)ccn1` | 2.836 |
| `CC(C)(C)C(=O)N1CCC2(COCc3cnc(N4CCOCC4)nc32)C1` (stereo not shown) | 4.605 |
| `Cc1nc(N(C)CCCc2nccn2C)c2nc(C)oc2n1` | -1.338 |
| `CC(C)CCNc1c(C#N)c2c(c3nncn13)CN(C)CC2` | -9.9 |
| `NC(=O)C1CCN(C(=O)CCn2ccc3cc(Br)ccc32)CC1` | -17.47 |
| `O=C(CCc1ccccc1)N1CCCCC1C1OCCO1` (stereo not shown) | -30.62 and -30.44 |
| `COCC[C@]1(O)CCN(Cc2ccccn2)C[C@H]1C` | 3.547 |
| `CCN1CCCC(c2c(-c3ccccc3)ncn2CC(N)=O)C1` (stereo not shown) | -0.8705 |
| `[H][C@@]12CN(S(C)(=O)=O)C[C@]1(C(=O)NC)CCC21CCNCC1` | 19.21 |
| `Cc1noc(C2CCN(C(=O)c3c(C)noc3C)CC2)n1` | -16.38 |
| `O=C(O)C(F)(F)F.O=S(=O)(C1CC1)N1CCC2(CC1)CC(Oc1cccnc1)CO2` (stereo not shown) | -7.718 |
| `O=C(O)C(F)(F)F.[H][C@@]12CCN(CC3CC3)C[C@]1([H])[C@H](C(=O)NCc1ccco1)CCO2` | -3.686 |
| `CN1C[C@H](O)[C@]2(CCN(Cc3ccc(OC(F)(F)F)cc3)C2)S1(=O)=O` | 5.263 |
| `CC(Nc1nccc(CCC(F)(F)F)n1)c1nc(-c2ccncc2)no1` (stereo not shown) | -11.17 and -18.73 |
| `COCCO[C@@H]1CCN(C(=O)c2ccc[nH]2)[C@H]1Cc1cnn(C)c1` | 5.99 |
| `O=C(NCc1cnc2n1CCN(c1ncc(F)cn1)CC2)C1CCC1` | 2.307 |
| `CN(C)C(=O)Cc1ccc(-c2cccc3c2CCNC3)cc1` | 1.374 |
| `CC(C)(C)c1cnc(CN2CCCC2Cn2cccn2)o1` (stereo not shown) | 16.2 |
| `NC(=O)c1cccc(CN2CCc3c(ncn3C3CC3)C2)c1` | 3.199 |
| `Cn1cc(CNC2CCc3c(ccc(=O)n3Cc3cccnc3)C2)cn1.O=C(O)C(F)(F)F.O=C(O)C(F)(F)F` (stereo not shown) | 5.738 |
| `Cc1cc(C)c2[nH]c(CN3CCCC(N4CCOCC4)C3)cc(=O)c2c1` (stereo not shown) | -10.47 |
| `O=C(O)CCc1cc2n(n1)CCCN(C(=O)c1ccc(F)cc1F)C2` | -4.298 |
| `CCn1cnnc1CNC(=O)N1CCN(c2ccccc2O)CC1` | 8.848 |
| `O=C(O)C(F)(F)F.[H][C@@]12CCCO[C@]1([H])[C@H](NC(=O)c1nccn1C)CN2CC1CCOCC1` | 6.655 |
| `O=C(O)C(F)(F)F.[H][C@@]12C[C@H](C(=O)NC3CCC3)[C@@]([H])(CN(CC3CC3)C1)O2` | -1.906 |
| `CCCNCc1ccc(OCc2ccc3c(c2)OCCO3)cc1.Cl` | -30.54 and -21.42 |
| `CNc1nc(CNC(=O)Nc2cccc(-c3nnco3)c2)cs1` | -20.8 |
| `COc1ccc2c(c1)C(=O)NC1(CC2)CCN(Cc2ccc(F)cc2)C1` (stereo not shown) | 17.02 |
| `CCn1cnnc1C1CCN(C(=O)c2ccc(Cl)s2)CC1` | 4.194 |
| `O=C(NCCn1cccn1)C1CCC(=O)N(CC2CCCCC2)C1` (stereo not shown) | -7.281 |
| `COc1ccc(C(=O)N2C[C@@H](C(=O)O)[C@H](c3ccccc3C)C2)c(O)c1` | -12.23 |
| `[H][C@]12CC[C@]([H])(CN(C(=O)c3cccnc3)C1)N(Cc1ncc[nH]1)C2` | -15.7 |
| `CC(=O)NCC(=O)N1Cc2nccn2CC(Cn2cccn2)C1` (stereo not shown) | -8.914 |
| `O=C(CNc1ccc(OC2CCOC2)cc1)NCc1ccco1` (stereo not shown) | -6.267 |
| `Cc1cc(NS(=O)(=O)c2cccs2)ccc1-n1cccc1C(=O)O` | -1.716 |
| `COCCN1CCCC(c2ncc(C(=O)N3CCOCC3)c(C)n2)C1` (stereo not shown) | 11.43 |
| `COc1ccc(C(=O)N(Cc2cnn(C)c2)C(C)C)cc1Br` | 15.4 |
| `CC(C)N(C)Cc1cn2c(n1)CN(Cc1ccsc1)CC2.O=C(O)C(F)(F)F.O=C(O)C(F)(F)F` | 0.6548 |
| `COc1c(C2CCCN2Cc2noc(C(C)C)n2)c(C)nn1C` (stereo not shown) | 4.307 |
| `CCc1ccsc1C(=O)N1CCN(CC(C)(C)O)CC1` | 3.163 |
| `CCCOc1cccc(C(=O)N2CCCC(n3cncn3)C2)c1` (stereo not shown) | 9.173 |
| `CCN1C(=O)CCC12CCN(S(=O)(=O)c1ccc(C#N)cc1)CC2` | 1.198 |
| `OCC1CCCN1c1cc(NCc2cc3ccccc3o2)ncn1` (stereo not shown) | -13.59 and -16.2 |
| `[H][C@@]12C[C@H](C(=O)NCC3CC3)CN(Cc3ccoc3)[C@]1([H])CCO2` | -11.2 |
| `Cl.c1cnc2[nH]c(C3CCCNC3)c(CN3CCCOCC3)c2c1` (stereo not shown) | 10.08 |
| `COc1cc(N2CCC3(CCN(Cc4cccnc4)C3=O)C2)ncn1` (stereo not shown) | 7.706 |
| `CCCn1cc(C(=O)NCc2nnc(-c3ccc(C)nc3)o2)c(C)n1` | -8.44 |
| `c1ccc(-c2nc(CN3CCc4c(ncn4C4CC4)C3)cs2)cc1` | 72.97 and 72.71 and 0.1329 |

4 of the entries, repeated:

compound	effect
Cn1cnc2c1C(COCC1CCOCC1)CN(C(=O)C1CC=CC1)C2.O=C(O)C(F)(F)F (stereo not shown)	-4.882
Cc1cnn(Cc2cc(F)ccc2F)c1NC(=O)C1COCCO1 (stereo not shown)	-2.575
O=C(C1CC(c2ccccc2)=NO1)N1CCCCc2ccccc21 (stereo not shown)	-0.6055
COc1nc2cc(C)ccc2cc1CN(C)Cc1n[nH]c2c1CCCC2	-7.524

Data taken from ChEMBL document CHEMBL3988442, “University of Dundee, Small-Polar-MMV Screening Library” (2021).